Results reported in patent publication US20220016102A1, “ER PROTEIN REGULATORS AND USE THEREOF” (ShanghaiTech University, priority 2018, published 2022).

System: MCF-7 cell line
Test: Assay for determination of inhibition of MCF-7 cell proliferation (CCK-8)
Type: cell-based
Conditions: Homo sapiens, MCF7, 96 h; MCF-7 cells, 4 days, CCK-8, FIG. 3
Experimental: MCF-7 were cultured in ncubator with 5% CO2 at 37° C. Complete medium was EMEM supplemented with 10% FBS, 100 U/mL Penicillin and Streptomycin, and 0.77 μg/mL recombinant human insulin.
10 μL CCK-8 reagent was added to the test well without adding the drugs, and after 4 h the O.D.value of the test well was recorded as the initial cell level. • After 4 days, 10 μL CCK-8 reagent was added, and the O.D.values was measured, and inhibition level was calculated.

SMILES: CC/C(=C(\c1ccccc1)c1ccc(OCCN(C)C)cc1)c1ccccc1 [Tamoxifene, Tamoxifen, reference compound]
- IC50: 0.602 µM
